Assay: general procedure: Fmoc solid-phase peptide synthesis; 2-Chlorotrityl chloride resin (manufacturer's loading 1.2 mmol/g; determined loading 0.6 mmol/g); DIC/Oxyma (microwave); HATU/DIPEA; DIC/DMAP for esterification; HATU/DIPEA for c
Conditions: whole synthesis, overall, scale of the general procedure 0.102 mmol (170 mg resin)
Ac-D-Ala1-Arg10-texiobactin gave an isolated yield of 12%.
Ala2-Arg10-teixobactin showed an isolated yield of 10%.
Substance Ala3-Arg10-teixobactin has an isolated yield of 11%.
Work on Ala6-Arg10-teixobactin yielded an isolated yield of 12%.
In the case of Ala7-Arg10-teixobactin, the isolated yield is reported as 12%.
With D-Ala4-Arg10-teixobactin the isolated yield was 12%.
Substance D-Ala5-Arg10-teixobactin has an isolated yield of 11%.

— article PMC5855875 (Chemical Science, 2017)
